No constants are given. Whether binding was seen depends on the method and setting. In cells and extracts the contact can be indirect. Some binding calls cover weakened binding; strength is not graded here.
Key:
[1] = target: neuropilin-1 (human (endogenous in patient-derived GBM cells and GBM specimens)) (UniProt O14786); assay: co-IP; 500 μg protein from GBM cells (treated with or without rSema3A or rVEGF165) or patient GBM specimens, Pierce IP lysis buffer; incubated overnight with 2 μg NRP1 or TGF-βR1 Ab on protein A/G beads; immunoblot
[2] = target: neuropilin-1 (human (endogenous in patient-derived GBM cells and GBM specimens)) (UniProt O14786); assay: proximity ligation; GBM cells treated with rSema3A or vehicle for 10 minutes, fixed with 4% paraformaldehyde; anti-NRP1 (mouse) and anti-TGF-βR1 (rabbit) Abs, Duolink PLA PLUS and MINUS probes; red dots counted in 5 random fields

Amino acid sequences for entries named in this document (tags omitted). Residues count along the entry.
UniProt O14786, residues 22-923: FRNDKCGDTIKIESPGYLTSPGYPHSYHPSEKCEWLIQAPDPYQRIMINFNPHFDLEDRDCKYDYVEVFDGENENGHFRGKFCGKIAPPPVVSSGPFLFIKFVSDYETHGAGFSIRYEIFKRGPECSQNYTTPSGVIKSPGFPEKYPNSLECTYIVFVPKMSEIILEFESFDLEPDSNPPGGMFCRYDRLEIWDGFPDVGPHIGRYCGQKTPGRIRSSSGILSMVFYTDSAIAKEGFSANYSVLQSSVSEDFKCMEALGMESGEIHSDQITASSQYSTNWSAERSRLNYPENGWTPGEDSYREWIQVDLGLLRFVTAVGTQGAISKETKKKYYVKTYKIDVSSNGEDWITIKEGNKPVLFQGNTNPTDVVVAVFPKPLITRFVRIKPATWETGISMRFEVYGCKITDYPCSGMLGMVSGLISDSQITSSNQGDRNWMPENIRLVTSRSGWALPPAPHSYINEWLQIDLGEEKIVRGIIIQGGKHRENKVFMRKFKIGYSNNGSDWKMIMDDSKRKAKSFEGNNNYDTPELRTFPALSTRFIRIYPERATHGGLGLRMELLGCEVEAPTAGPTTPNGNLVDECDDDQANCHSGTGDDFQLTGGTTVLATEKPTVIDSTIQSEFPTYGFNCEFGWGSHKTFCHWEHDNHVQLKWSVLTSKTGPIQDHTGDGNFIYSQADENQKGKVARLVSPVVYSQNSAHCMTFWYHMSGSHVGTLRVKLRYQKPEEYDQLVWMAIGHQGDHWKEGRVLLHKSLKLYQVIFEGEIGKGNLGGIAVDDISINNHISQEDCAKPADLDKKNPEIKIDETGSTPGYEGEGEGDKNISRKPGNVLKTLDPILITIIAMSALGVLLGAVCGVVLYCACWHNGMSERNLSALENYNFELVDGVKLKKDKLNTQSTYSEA

binding [1]: binds
binding [2]: binds
B1: TGF-β receptor 1 (receptor, UniProt P36897 34-503)
chain: LQCFCHLCTKDNFTCVTDGLCFVSVTETTDKVIHNSMCIAEIDLIPRDRPFVCAPSSKTGSVTTTYCCNQDHCNKIELPTTVKSSPGLGPVELAAVIAGPVCFVCISLMLMVYICHNRTVIHHRVPNEEDPSLDRPFISEGTTLKDLIYDMTTSGSGSGLPLLVQRTIARTIVLQESIGKGRFGEVWRGKWRGEEVAVKIFSSREERSWFREAEIYQTVMLRHENILGFIAADNKDNGTWTQLWLVSDYHEHGSLFDYLNRYTVTVEGMIKLALSTASGLAHLHMEIVGTQGKPAIAHRDLKSKNILVKKNGTCCIADLGLAVRHDSATDTIDIAPNHRVGTKRYMAPEVLDDSINMKHFESFKRADIYAMGLVFWEIARRCSIGGIHEDYQLPYYDLVPSDPSVEEMRKVVCEQKLRPNIPNRWQSCEALRVMAKIMRECWYANGAARLTALRIKKTLSQLSQQEGIKM

From publication PMC10721275
